Assay results taken from PubChem BioAssay AID1347423 (Functional Genomics Laboratory (NCATS/FGL), 2020).
Screen size: about 52,000 sequences; about 210 (0.4%) were called active.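 How the source made its calls: active means gene whose silencing raises cell survival under the drug, median off-target-corrected z-score across its silencing RNAs 2 or more; inactive means the rest.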 Some of the results follow.

Assay: Resistance to Poly (ADP-Ribose) Polymerase inhibitor: Gene Identification via Genome-wide siRNA Screen
Settings: mouse BRCA2 R2336H ES cells, olaparib, CellTiter-Glo viability; hits give high values
In short: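 Genome-wide siRNA screen (3 siRNAs/gene, 20 nM) in mouse ES cells carrying hypomorphic BRCA2 R2336H; olaparib 500 nM added 48 h post-transfection, CellTiter-Glo viability 72 h later. Normalized to plate-median negative control; MAD z-scores, gene median, seed-adjusted.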

| Sequence | z-score |
| --- | --- |
| GGACACAUUAUCCAGUGACTT against A830041P22Rik | inactive: 1.01 |
| GGCUUUUAUUGUCCUGAAUTT against Sah | inactive: 0.332 |
| GGCCAAACACGUAUCUUUGTT against Snta1 | inactive: 0.329 |
| GGAGACGAAGUGCUUAGGCTT against Gmip | inactive: 0.781 |
| GGAGUGUUUUACCUCUUUCTT against Nudt13 | inactive: -2.5 |
| GUCAUCAUGAACCAAGAGATT against Olfr713 | inactive: -0.171 |
| GGCUGAGAAUUACUUAAACTT against 1700019E19Rik | inactive: 0.374 |
| CCAUCUCAUUCCUUACCAGTT against MP4 | inactive: -1.87 |
| GGCCCUGCCUACUAUCUAUTT against B3gat3 | inactive: 1.01 |
| AUAUGUCUGUUUCUGCGAATT against V1rh2 | inactive: -0.362 |
| CCUGUACUCUAUAUUCUGUTT against Pld2 | inactive: 0.118 |
| CGACUUCACCUUAUUCCUGTT against BC018399 | inactive: 0.24 |
| CCGCUAACUUGAUUGACGATT against Tcte1 | inactive: -0.0189 |
| GCUCUCAGUGACCUUAGAATT against Dnaja1 | inactive: 0.119 |
| GGCAAUUUUGGACAAACAGTT against Amy1 | inactive: 1.5 |
| CCAUGCAACUUACCAAAGATT against Lrrc5 | inactive: -0.0693 |
| GGUAAAAAGCCUUAUCAGUTT against Zfp146 | inactive: 0.725 |
| GGAACAAAGAAGUAAUGUATT against Tbk1 | inactive: 0.188 |
| GGUGAUUGUCUUGAUAUCCTT against Olfr1213 | inactive: 0.0445 |
| GGCUUCCUGUUGGCAGUCATT against Olfr1413 | inactive: -1.31 |
| GGAUGAUCAUUCUAGCUGUTT against 4921522K05Rik | inactive: 0.0935 |
| GGACUUGAAACUUCUGGAUTT against 2310041H06Rik | inactive: 0.864 |
| GGAACUGGAAAGGAAUCGCTT against Dpp6 | inactive: 0.624 |

| Sequence | z-score |
| --- | --- |
| AAACCAUACUUGAAAGAAATT against Olfr943 | inactive: -0.095 |
| GCAUUCCAACGGAUUUAAUTT against Dag1 | inactive: 0.257 |
| GGUCCUUAACCGCUAUGCATT against 9530027K23Rik | inactive: 0.514 |
| CCUCGAUUAUAGCAAUACUTT against Slc16a14 | inactive: -0.578 |
| GGCUAUUAACAUCUCAGUUTT against 4930418P06Rik | inactive: -1.12 |
| GGAAAAUAAGCAUAGUGAUTT against Spesp1 | inactive: 0.159 |
| GGGAAGUCACUGAAGCCUGTT against Akr7a5 | inactive: -0.538 |
| GGAAUUUCUGUGGUGGAGATT against Ddit4 | inactive: 0.0089 |
| CGUUGAUCUACGUUAUAAATT against Car6 | inactive: -0.1 |
| AGAGGAAGCUCGAAAACGGTT against U2af1-rs2 | inactive: -1.4 |
| CCCGGAGAAGUUUUUAUCATT against Sfpq | inactive: -0.0657 |
| GGGCAAUUUGGACUGUUUUTT against Jam3 | inactive: 0.27 |
| GGUGUGGGUGACAAGGUUATT against Ecgf1 | inactive: 0.833 |
| CGAUGCUGAUGUAUCAAAGTT against Phkb | inactive: 0.316 |
| GGAGCACAGAAAACACAAGTT against Cspg3 | inactive: 0.361 |
| GGAACUCACUCUAUCUUUUTT against Gpr77 | inactive: 0.393 |
| GCCCAUUGAAGAAAAACCCTT against Arid4b | inactive: 0.661 |
| GCCAGUUAACUUUAGGGAGTT against Ywhaz | inactive: -0.774 |
| GGGUCAGAAUAUUUGCUUCTT against Olfr325 | inactive: 0.133 |
| GCUAAUGGACAGGUAAAUATT against 2010005A06Rik | inactive: 0.215 |
| GCUCAUUUAUUCAGGAAGCTT against Zbtb9 | inactive: 0.825 |
| GGGAGCUAAGAAGAUUCAUTT against 0610009K11Rik | inactive: 2.78 |
| GGAAGAGCUGCUGAAUUCATT against Mthfd2 | inactive: 0.832 |

Nothing new here: an excerpt of the list.

| Sequence | z-score |
| --- | --- |
| AAACCAUACUUGAAAGAAATT against Olfr943 | inactive: -0.095 |
| GCAUUCCAACGGAUUUAAUTT against Dag1 | inactive: 0.257 |
| GGUCCUUAACCGCUAUGCATT against 9530027K23Rik | inactive: 0.514 |
| CCUCGAUUAUAGCAAUACUTT against Slc16a14 | inactive: -0.578 |
| GGCUAUUAACAUCUCAGUUTT against 4930418P06Rik | inactive: -1.12 |
| GGAAAAUAAGCAUAGUGAUTT against Spesp1 | inactive: 0.159 |
| GGGAAGUCACUGAAGCCUGTT against Akr7a5 | inactive: -0.538 |
| GGAAUUUCUGUGGUGGAGATT against Ddit4 | inactive: 0.0089 |
| CGUUGAUCUACGUUAUAAATT against Car6 | inactive: -0.1 |
| AGAGGAAGCUCGAAAACGGTT against U2af1-rs2 | inactive: -1.4 |
| CCCGGAGAAGUUUUUAUCATT against Sfpq | inactive: -0.0657 |
| GGGCAAUUUGGACUGUUUUTT against Jam3 | inactive: 0.27 |
| GGUGUGGGUGACAAGGUUATT against Ecgf1 | inactive: 0.833 |
| CGAUGCUGAUGUAUCAAAGTT against Phkb | inactive: 0.316 |
| GGAGCACAGAAAACACAAGTT against Cspg3 | inactive: 0.361 |
| GGAACUCACUCUAUCUUUUTT against Gpr77 | inactive: 0.393 |
| GCCCAUUGAAGAAAAACCCTT against Arid4b | inactive: 0.661 |
| GCCAGUUAACUUUAGGGAGTT against Ywhaz | inactive: -0.774 |

Next part:

| Sequence | z-score |
| --- | --- |
| GGUGGAUUUAGUUUCUGCATT against C1d | inactive: 0.279 |
| GGACGACUACAGCUAUGACTT against Klk1 | inactive: -0.359 |
| GGACUGUCAGUACUGUCAATT against E030025L21Rik | inactive: -0.201 |
| GCAAUAGAAAAGUCCGUGGTT against Zfyve20 | inactive: 0.359 |
| GGAGUUUGUGAAUAAAUGUTT against Map2k2 | inactive: -1.05 |
| GGACAAAUUCCUUCUUUUCTT against Olfr651 | inactive: 0.04 |
| GGUCCAGAGAAUGUUAUUATT against 9530002K18Rik | inactive: -0.66 |
| GGUGGAAAGUGCAUAGACATT against Notch3 | inactive: 0.0686 |
| GGAACUGGAAAGAGUUCUUTT against Foxo1 | inactive: 0.00816 |
| GGGAGGAAGUGUUCUUCUCTT against Psg18 | inactive: 0.154 |
| GGAUGUGUUACUUACCAAATT against Mtap4 | inactive: -0.294 |
| GCGGAUCUCUGAUUUAUAUTT against Traf5 | inactive: 0.147 |
| CCCUUUGCUUAACCUUGCATT against Olfr1258 | inactive: 1.02 |
| CCACUGUGAGACACAUAAGTT against 4933405I11Rik | inactive: -0.857 |
| GGCCUACUUCCUACUCAAATT against Tbx10 | inactive: -0.176 |
| GGAGGUGAAGCUCAUUGUCTT against Ildr1 | inactive: 0.00568 |
| GGCCACUGACCAUGAAGAATT against Gata2 | inactive: -2.17 |
| GGCUCAUCCAAAAUAGAGGTT against Napa | inactive: -0.261 |
| GGCUUCUUCGCUCAGAAAUTT against Dnase2a | inactive: 0.959 |
| GGUCAUGGAUGUCACAGAGTT against Map4k6 | inactive: -0.774 |
| GUGCAGAUACUACCUACAATT against Olfr132 | inactive: -2.43 |
